Results deposited as PubChem BioAssay AID493246 (Drosophila RNAi Screening Center, 2011)
The deposit covers about 21,000 reagents; below is an unselected part of those with a known target gene and a result. In the full data, 429 (2%) are marked active. 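Values are raw and not normalised between plates; calls rest on per-plate z-scores that were not deposited.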 Unmarked entries are inactive. The numbers tell different reagents against one gene apart. Names joined by + are all predicted targets of the reagent. No sequences are given here. Not given: the amount of reagent, the time to read-out.

- Test: 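Identify essential fly genes by loss of cell viability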 (primary screen)
- Cells: Drosophila Kc and S2R+ cells
- Reagent: long dsRNA against Drosophila genes
- Detection: 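Cell number per well after knock-down, printed as raw plate values; calls were based on per-plate z-scores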
- Direction: Kc cell number and S2R+ cell number: higher = more cells remaining
- Call rule: 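Counted as a hit if cell number falls by a z-score of at least 3 within its plate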

gene knocked down	reagent no.	Kc cell number, rep 1	Kc cell number, rep 2	S2R+ cell number, rep 1	S2R+ cell number, rep 2
CG7137	1	1.32e6	1.38e6	1.10e6	1.07e6
neur (neuralized)	1	1.42e6	1.51e6	1.24e6	1.28e6
sl (small wing)	1	5.79e5		8.37e5	
Eo (Ecdysone oxidase)	1	1.80e6	1.84e6	1.12e6	1.30e6
okr (okra)	1	1.29e6	1.30e6	9.05e5	9.91e5
Fatp2 (Fatty acid transport protein 2)	1	6.16e5		9.85e5	
Fatp2 (Fatty acid transport protein 2)	2	1.61e6	1.65e6	1.33e6	1.45e6
Fatp2 (Fatty acid transport protein 2)	3	1.63e6	1.70e6	1.39e6	1.43e6
Polr2M (RNA polymerase II subunit M)	1	1.64e6	1.62e6	1.12e6	1.20e6
CG7715	1	1.19e6	1.20e6	1.16e6	1.17e6
CG33111	1	1.50e6	1.46e6	9.86e5	1.06e6
CG33111	2	1.47e6	1.53e6	9.98e5	1.06e6
CG14391	1	1.49e6	1.59e6	1.37e6	1.50e6
CG14053	1	1.51e6	1.50e6	1.14e6	1.23e6
Arl5 (ADP-ribosylation factor-like 5)	1	1.33e6	1.44e6	1.25e6	1.18e6
betaTub97EF (beta-Tubulin at 97EF)	1	1.66e6	1.70e6	8.87e5	1.03e6
betaTub97EF (beta-Tubulin at 97EF)	2	1.54e6	1.56e6	9.75e5	1.16e6
betaTub97EF (beta-Tubulin at 97EF)	3	1.51e6	1.52e6	1.00e6	1.13e6
XNP	1	5.00e5		8.16e5	
Atg16 (Autophagy-related 16)	1	5.40e5		8.61e5	
Atg16 (Autophagy-related 16)	2	1.39e6	1.46e6	9.83e5	1.07e6
Atg16 (Autophagy-related 16)	3	1.42e6	1.47e6	1.02e6	1.10e6
CG17896	1	5.59e5		9.13e5	
sm (smooth)	1	5.45e5		7.84e5	
sm (smooth)	2	1.29e6	1.30e6	1.09e6	1.16e6
CG12645	1	1.80e6	1.63e6	1.14e6	1.28e6
Sce (Sex combs extra)	1	5.06e5		7.30e5	
CG11396	1	1.68e6	1.76e6	1.43e6	1.57e6
wdn (wings down)	1	5.12e5		8.51e5	
CG11668	1	1.48e6	1.46e6	1.07e6	1.19e6
CG15765	1	3.36e5		6.46e5	
CG31091	1	1.40e6	1.47e6	1.01e6	1.05e6
Gbeta13F (G protein beta subunit 13F)	1	5.71e5		9.34e5	
CG42246	1	1.16e6	1.41e6	1.04e6	1.10e6
CG7695	1	1.21e6	1.19e6	1.12e6	1.19e6
yellow-f	1	1.34e6	1.18e6	1.02e6	1.10e6

Quoted from the listing, 12 entries:
gene knocked down	reagent no.	Kc cell number, rep 1	Kc cell number, rep 2	S2R+ cell number, rep 1	S2R+ cell number, rep 2
Arl5 (ADP-ribosylation factor-like 5)	1	1.33e6	1.44e6	1.25e6	1.18e6
betaTub97EF (beta-Tubulin at 97EF)	1	1.66e6	1.70e6	8.87e5	1.03e6
betaTub97EF (beta-Tubulin at 97EF)	2	1.54e6	1.56e6	9.75e5	1.16e6
betaTub97EF (beta-Tubulin at 97EF)	3	1.51e6	1.52e6	1.00e6	1.13e6
XNP	1	5.00e5		8.16e5	
Atg16 (Autophagy-related 16)	1	5.40e5		8.61e5	
Atg16 (Autophagy-related 16)	2	1.39e6	1.46e6	9.83e5	1.07e6
Atg16 (Autophagy-related 16)	3	1.42e6	1.47e6	1.02e6	1.10e6
CG17896	1	5.59e5		9.13e5	
sm (smooth)	1	5.45e5		7.84e5	
sm (smooth)	2	1.29e6	1.30e6	1.09e6	1.16e6
CG12645	1	1.80e6	1.63e6	1.14e6	1.28e6

Next results:
gene knocked down	reagent no.	Kc cell number, rep 1	Kc cell number, rep 2	S2R+ cell number, rep 1	S2R+ cell number, rep 2
CG45105	1	1.28e6	1.23e6	8.84e5	1.02e6
CG45105	2	1.22e6	1.21e6	8.47e5	9.50e5
Srlp (Spliceosome-ribosome linker protein)	1	5.56e5 (active)	6.86e5	4.79e5	5.63e5
CG14406	1	1.49e6	1.51e6	1.14e6	1.27e6
Rcd-1 (Required for cell differentiation 1)	1	1.53e6	1.49e6	1.12e6	1.23e6
tRNA:Leu-CAA-2-3 (transfer RNA:Leucine-CAA 2-3)	1	1.03e6	1.34e6	1.08e6	1.05e6
CR30374 (pseudo)	1	1.64e6	1.78e6	1.03e6	1.15e6
Rbf2 (Retinoblastoma-family protein 2)	1	1.44e6	1.57e6	1.08e6	1.16e6
GABPI (beta4GalNAcTB pilot)	1	1.38e6	1.42e6	5.70e5	7.10e5
a6	1	4.95e5		7.46e5	
asRNA:CR42547 + CG15674	1	1.52e6	1.56e6	1.24e6	3.23e5
CG8818	1	1.32e6	1.42e6	9.56e5	1.03e6
UQCR-6.4 (Ubiquinol-cytochrome c reductase 6.4 kDa subunit)	1	1.58e6	1.65e6	1.31e6	1.45e6
rdgBbeta	1	1.67e6	1.72e6	1.13e6	1.36e6
yem (yemanuclein)	1	1.47e6	1.57e6	1.08e6	1.19e6
yem (yemanuclein)	2	1.46e6	1.52e6	9.97e5	1.07e6
CG34299	1	1.29e6	1.66e6	1.07e6	1.11e6
HP6 (Heterochromatin protein 6)	1	1.39e6	1.33e6	1.01e6	1.12e6
HtrA2 (HTRA2-related serine protease)	1	1.34e6	1.36e6	1.08e6	1.18e6
CG33919	1	1.57e6	1.62e6	1.03e6	1.18e6
CG2921	1	1.36e6	1.41e6	1.11e6	1.09e6
CG34305	1	1.51e6	1.68e6	1.21e6	1.41e6
bur (burgundy)	1	1.25e6	1.39e6	1.12e6	1.11e6
CG3679	1	6.20e5		8.92e5	
Srp19 (Signal recognition particle 19)	1	1.62e6	1.69e6	1.24e6	1.24e6
Ank2 (Ankyrin 2)	1	1.67e6	1.73e6	1.18e6	1.32e6
Ank2 (Ankyrin 2)	2	1.39e6	1.26e6	1.25e6	1.30e6
Ank2 (Ankyrin 2)	3	1.34e6	1.35e6	1.21e6	1.21e6
Ank2 (Ankyrin 2)	4	1.28e6	1.36e6	1.13e6	1.22e6
CG11298	1	1.62e6	1.70e6	1.24e6	1.34e6
Ugt301D1 (UDP-glycosyltransferase family 301 member D1)	1	1.72e6	1.75e6	1.32e6	1.62e6
CG7322	1	1.51e6	1.54e6	1.06e6	1.19e6
Rbp6 (RNA-binding protein 6)	1	1.52e6	1.63e6	1.25e6	1.43e6
Rbp6 (RNA-binding protein 6)	2	1.69e6	1.91e6	1.25e6	1.38e6
Rbp6 (RNA-binding protein 6)	3	1.74e6	1.85e6	1.28e6	1.42e6
Rbp6 (RNA-binding protein 6)	4	1.72e6	1.84e6	1.32e6	1.32e6
Rbp6 (RNA-binding protein 6)	5	1.68e6	1.82e6	1.31e6	1.39e6
awd (abnormal wing discs)	1	1.45e6	1.44e6	9.86e5	1.14e6
Mlp84B (Muscle LIM protein at 84B)	1	1.47e6	1.52e6	1.30e6	1.43e6
